Some of the results follow. The main result of the screen is listed elsewhere. These columns were measured beside it and carry no call. The list favours compounds with an active or inconclusive main result. Potencies come from curve fits of mixed quality, noted in brackets.

The values that follow come from PubChem BioAssay AID662 (National Center for Advancing Translational Sciences (NCATS), 2007).

A short description of the experiment: Cell signaling CRE-BLA (Fsk stim). The following applies: CHO CRE-bla reporter (cAMP response element driving beta-lactamase), forskolin EC10, beta-lactamase ratio; measured here: 460 nm blue channel. In outline:
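Modulation of forskolin-driven signalling is measured in CHO cells carrying a CRE-controlled beta-lactamase reporter. Cells are stimulated with EC10 NKH 477 in the presence of titrated compound for 3 h at 37 °C, then loaded with CCF4 for 2 h at room temperature.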
The term AC50 denotes the concentration giving half of the maximal activity seen. On to `O=C1c2cccnc2C(Nc2ccc(S(=O)(=O)N3CCCCCC3)cc2)N1Cc1ccccc1` (centres undefined), for which the AC50 was 1.58 µM [rising, partial curve]. For the compound `COc1cc2[nH]c3c(N4CCC(C(N)=O)CC4)ncnc3c2cc1OC`, the AC50 is 3.16 µM [falling, partial curve]. With `COc1ccccc1C1C(C(=O)c2cc3ccccc3o2)=C(O)C(=O)N1CCN1CCOCC1` (centres undefined) the figure was 10 µM [falling, partial curve].

`CCn1c2ccccc2c2nnc(SCC(=O)OCN3C(=O)c4ccccc4C3=O)nc21`: the AC50 was 0.00398 µM [falling, full curve]. In the case of `Cc1ccccc1-n1nnnc1SCC(N)=O`, the AC50 is 5.01 µM [falling, single point]. With `COc1cc(-c2nnc3sc(-c4ccco4)nn23)cc(OC)c1OC`, the AC50 is 1 µM [rising, full curve]. As for `Cc1ccnc(SCC(=O)Nc2oc(-c3ccccc3)c(-c3ccccc3)c2C#N)n1`, the half-maximal activity concentration (AC50) is 6.31 µM [rising, partial curve].

Turning to `CC(=O)Nc1cccc(-c2cnc3ccccc3n2)c1`, the AC50 is 10 µM [rising, single point].

On to `Cc1nc(Nc2ccccc2)c2nc(-c3ccccc3)n(CCN3CCOCC3)c2n1`, for which the AC50 was 7.94 µM [rising, partial curve]. `Cc1cc2c(c(=O)n1CCCn1ccnc1)C(c1ccco1)C(C#N)=C(N)O2` (centres undefined): the AC50 was 0.00316 µM [falling, full curve, poor fit]. With `O=C(CNC(=O)c1ccccc1F)NC1CC1` the figure was 0.00398 µM [falling, full curve]; with `O=C(O)C1C2CCC(C2)C1C(=O)NCc1ccco1` (centres undefined), 0.0794 µM [falling, full curve, poor fit]; with `CC(Sc1nc2ccccc2o1)C(=O)O` (centres undefined), 0.1 µM [falling, full curve, poor fit]. With `Cc1nn(-c2ccccc2)c2sc(C(=O)N3CCc4ccccc4C3)cc12` the figure was 3.98 µM [rising, full curve]; with `Cc1nc(NC2CCCCC2)c2nc(-c3ccccc3)n(CCN(C)C)c2n1`, 10 µM [rising, single point]; with `N#Cc1cc2c(=O)n3ccccc3nc2n(CCCN2CCOCC2)c1=O`, 10 µM [rising, partial curve]. The value for `CCOC(=O)Nc1cc(=O)c2ccccc2o1` was 0.631 µM [rising, full curve]; that for `Cn1c(=O)c(CCc2ccccc2)nc2cnc(N3CCNCC3)nc21` was 12.6 µM [rising, single point]; that for `COC(=O)c1ccc(C(=O)OC)c(NC(=O)c2oc(C)nc2C)c1` was 0.251 µM [falling, partial curve, poor fit]. With `CCC(=O)Nc1cc(-c2nnc(OC)c3ccccc23)ccc1N1CCOCC1`, the AC50 is 15.8 µM [rising, single point].

Regarding `Cc1cccc2cc(C#N)c(NCCNC(=O)NC3CCCCC3)nc12`, the AC50 was 0.794 µM [falling, partial curve, poor fit]. With `O=C1CC(c2cccs2)CC(O)=C1C=NCCN1CCNCC1` (centres undefined) the figure was 0.398 µM [rising, partial curve]; with `Cc1ccc(OCc2nnc(SCc3cc(=O)[nH]c4ccccc34)o2)cc1`, 12.6 µM [rising, single point]. With `COC(=O)c1cc(OC)c(OC)cc1NC(=O)Cn1nnc(-c2ccccc2Cl)n1` the figure was 2.51 µM [rising, full curve]; with `CCOc1ccc(NC(=O)CN(C)c2nnnn2-c2ccccc2)cc1OCC`, 5.01 µM [falling, single point]; with `CCc1c(C)sc(NC(=O)c2cc(-c3cc(OC)ccc3OC)on2)c1C#N`, 1 µM [rising, single point]. With `CN(C)c1ccc(-c2cncnc2NCc2ccccc2)cc1` the figure was 5.01 µM [rising, single point]. On to `Cc1cc(/C=N/n2cnnc2)c(C)n1-c1cccc(Cl)c1`, for which the AC50 is 12.6 µM [rising, partial curve]. The value for `CCCCn1c(NC(=O)c2ccccc2)c(C#N)c2nc3ccccc3nc21` was 12.6 µM [rising, partial curve]. The value for `O=C(N1CCCCCC1)N1CCN(S(=O)(=O)N2CCOCC2)CC1` was 0.00316 µM [falling, full curve, poor fit]; that for `O=C(c1cc2ncc(Br)cn2n1)N1CCOCC1` was 0.398 µM [falling, full curve]; that for `CCOCc1nnc(NC(=O)CSc2ccccc2)s1` was 3.98 µM [rising, single point]. The value for `CCOC(=O)c1c(-c2ccncc2)csc1N` was 15.8 µM [rising, partial curve]; that for `CCc1cc(-c2[nH]ncc2-c2ccc3c(c2)OCO3)c(O)cc1O` was 2.51 µM [falling, full curve]; that for `CN(Cc1ccco1)c1nc(-c2ccccc2Cl)nc2ccccc12` was 7.94 µM [rising, partial curve]. Turning to `CCCCNC(=O)c1sc(=S)n2c1[nH]c(=O)c1ccccc12`, the AC50 was 0.01 µM [falling, full curve, poor fit]. On to `CC1(C)C2CCC1(C)C(NC1=NCCC1)C2` (centres undefined), for which the AC50 was 3.16 µM [rising, single point]. Take `Cc1ccccc1Cn1ccc(NC(=O)c2cnn3c(C(F)(F)F)cc(-c4ccco4)nc23)n1`: the AC50 is 7.94 µM [rising, partial curve, poor fit]. With `Cc1ccc(S(=O)(=O)Nc2cc(C(=O)O)ccc2N2CCCCC2)cc1` the figure was 25.1 µM [rising, single point]. Regarding `O=C(O)c1c2ccccc2cc2ccccc12`, the half-maximal activity concentration (AC50) is 31.6 µM [falling, single point]. With `COc1ccc(OC)c(NC(=O)CN(c2ccc(OC)c(Cl)c2)S(C)(=O)=O)c1` the figure was 2.51 µM [rising, full curve]. With `Cn1c(=O)c2c(SC3CCCC3)nc(C3CC3)nc2n(C)c1=O` the figure was 2.51 µM [rising, partial curve]; with `CCOC(=O)c1ccc2c(c1)nc(SCC(=O)N1CCCCC1)n2CC`, 20 µM [rising, single point]; with `COc1ccccc1N1CCN(C(=O)c2ccc3nc(-c4ccco4)c(-c4ccco4)nc3c2)CC1`, 12.6 µM [rising, single point]. Regarding `Cc1nc(C)c2c(=O)cc(-c3ccccc3)[nH]c2n1`, the AC50 was 10 µM [rising, partial curve].

Regarding `N#Cc1ccccc1-c1ccc2ncnc(NCc3ccccc3)c2c1`, the half-maximal activity concentration (AC50) is 2 µM [rising, full curve]. Take `COc1cc(-c2nnc(SCC(=O)N(Cc3ccccc3)C(C)(C)C)o2)cc(OC)c1OC`: the AC50 was 2 µM [rising, full curve, poor fit]. As to `C/C(Cl)=C\Cn1c(=O)c2c(nc3n2CCS3)n(C)c1=O`, the AC50 was 10 µM [rising, partial curve]. The value for `COc1cc2cc(C(c3nnnn3C(C)(C)C)N3CCc4ccccc4C3)c(=O)[nH]c2cc1OC` (centres undefined) was 12.6 µM [rising, partial curve]; that for `O=C(CN1CCN(c2ccccn2)CC1)Nc1cc(C(F)(F)F)ccc1Cl` was 1 µM [falling, partial curve]. With `Cc1ccc(CNC(=O)CNS(=O)(=O)c2cccc3nsnc23)cc1`, the AC50 is 20 µM [rising, single point]. With `N#Cc1c(N)[nH]c(=S)c(C#N)c1-c1ccccc1` the figure was 25.1 µM [falling, single point]; with `Cc1cc(C)c2c(=O)[nH]c(SCC(=O)Nc3ccccc3)nc2n1`, 5.01 µM [rising, partial curve]; with `O=C(NC1CC1)c1ccc(COc2ccc(F)cc2)o1`, 0.126 µM [falling, single point]. With `Cc1c(NC(=O)C(C)OC(=O)c2cc3c4ccccc4n(C)c3s2)c(=O)n(-c2ccccc2)n1C` (centres undefined) the figure was 5.01 µM [falling, single point]; with `COc1ccc(CN=CC2=C(O)CC(C)(C)CC2=O)cc1`, 0.316 µM [rising, full curve]. The value for `CCOC(=O)c1[nH]c2ccc(OC)cc2c1NC(=O)c1nonc1C` was 12.6 µM [rising, partial curve]. In the case of `O=C(CCCNS(=O)(=O)c1cccs1)N1CCN(c2cccc(Cl)c2)CC1`, the AC50 was 15.8 µM [falling, single point].

As for `COc1cc(-c2nnc(-c3ccc(S(=O)(=O)c4ccccc4)cc3)o2)cc(OC)c1OC`, the AC50 was 3.16 µM [rising, partial curve]. With `Cc1ccc(CC(=O)N2CCC(c3nc4c(nnn4Cc4ccccc4)c(=O)[nH]3)CC2)cc1` the figure was 7.94 µM [rising, partial curve]. Take `COc1cccc(C(=O)NCC(c2cccnc2)N2CCN(c3ccccc3OC)CC2)c1` (centres undefined): the AC50 is 12.6 µM [rising, partial curve].

Turning to `Nc1nc(OCC(F)(F)F)cc(Oc2ccccc2F)n1`, the AC50 is 0.316 µM [rising, partial curve, poor fit]. The value for `CSc1nc(NCC(C)C)nc(N2CCOCC2)n1` was 12.6 µM [rising, single point]; that for `COc1ccc(-c2nnc(SCC(=O)Nc3cc(C)on3)n2C)cc1OC` was 10 µM [rising, single point]; that for `N#CCCn1c(=O)c(-c2ccc(Cl)cc2)nc2cnc(OCc3ccccc3)nc21` was 7.94 µM [rising, partial curve]. For the compound `Cc1nc2sc(-c3ccccc3)cc2c(=O)n1-n1cccc1`, the AC50 was 5.01 µM [rising, single point]. The value for `CCOC(=O)c1c(N)sc2c(OC)c(Br)ccc12` was 15.8 µM [rising, partial curve]; that for `CN(C)c1ccc(-c2nc(NC3CCNCC3)c3ccccc3n2)cc1` was 10 µM [rising, partial curve].

`CCOC(=O)c1c(NC(=O)COC)sc(C(C)=O)c1C`: the AC50 is 12.6 µM [rising, partial curve].
